# In patent US8846345B2, “Recombinant cell line” (The Queen's University of Belfast, priority 2002, dated 2014):
# At least one compound was matched to its structure with a doubt left.
# Test system: IL-12 α and β monomer forms
# Test: Inhibitor assay: secretion of IL-12 α and β monomer forms
# Details: 16 hr treatment
smiles,measurement,value
"Cc1ccc(-c2cc(C(F)(F)F)nn2-c2ccc(S(N)(=O)=O)cc2)cc1 [Celecoxib, 4-[5-(4-methylpheny)-3-(trifluoromethyl)-IH-pyrazol-I-yl]benzenesulfonamide]",secretion of IL-12 α and β monomer forms,not suppressed
